This is an account of results in paper PMC6134139.

Chains of the proteins cited; added tags and fusions are not shown.
UniProt Q96GD4: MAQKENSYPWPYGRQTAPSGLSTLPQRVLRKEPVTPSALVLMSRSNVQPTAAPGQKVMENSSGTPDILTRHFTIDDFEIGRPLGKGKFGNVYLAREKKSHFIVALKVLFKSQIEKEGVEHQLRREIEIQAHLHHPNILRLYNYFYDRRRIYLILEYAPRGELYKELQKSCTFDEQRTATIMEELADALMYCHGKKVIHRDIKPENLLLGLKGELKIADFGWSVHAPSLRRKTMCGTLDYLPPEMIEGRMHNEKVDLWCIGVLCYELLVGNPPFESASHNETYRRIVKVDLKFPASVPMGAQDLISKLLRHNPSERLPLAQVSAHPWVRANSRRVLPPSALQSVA

Changes are numbered by the printed parent chain. Results are given in words; binding and its absence hold for the method and conditions named. Binding seen in cells or lysates may run through a third protein. Some results given as binding are weak or reduced against the parent protein; the word gives no strength. Where a sequence is shown, tags or fusion partners need not be part of it.

In assay [1] the target is T1, Flag-tagged full-length RecQL4 (human) (UniProt O94761).
T1 sequence: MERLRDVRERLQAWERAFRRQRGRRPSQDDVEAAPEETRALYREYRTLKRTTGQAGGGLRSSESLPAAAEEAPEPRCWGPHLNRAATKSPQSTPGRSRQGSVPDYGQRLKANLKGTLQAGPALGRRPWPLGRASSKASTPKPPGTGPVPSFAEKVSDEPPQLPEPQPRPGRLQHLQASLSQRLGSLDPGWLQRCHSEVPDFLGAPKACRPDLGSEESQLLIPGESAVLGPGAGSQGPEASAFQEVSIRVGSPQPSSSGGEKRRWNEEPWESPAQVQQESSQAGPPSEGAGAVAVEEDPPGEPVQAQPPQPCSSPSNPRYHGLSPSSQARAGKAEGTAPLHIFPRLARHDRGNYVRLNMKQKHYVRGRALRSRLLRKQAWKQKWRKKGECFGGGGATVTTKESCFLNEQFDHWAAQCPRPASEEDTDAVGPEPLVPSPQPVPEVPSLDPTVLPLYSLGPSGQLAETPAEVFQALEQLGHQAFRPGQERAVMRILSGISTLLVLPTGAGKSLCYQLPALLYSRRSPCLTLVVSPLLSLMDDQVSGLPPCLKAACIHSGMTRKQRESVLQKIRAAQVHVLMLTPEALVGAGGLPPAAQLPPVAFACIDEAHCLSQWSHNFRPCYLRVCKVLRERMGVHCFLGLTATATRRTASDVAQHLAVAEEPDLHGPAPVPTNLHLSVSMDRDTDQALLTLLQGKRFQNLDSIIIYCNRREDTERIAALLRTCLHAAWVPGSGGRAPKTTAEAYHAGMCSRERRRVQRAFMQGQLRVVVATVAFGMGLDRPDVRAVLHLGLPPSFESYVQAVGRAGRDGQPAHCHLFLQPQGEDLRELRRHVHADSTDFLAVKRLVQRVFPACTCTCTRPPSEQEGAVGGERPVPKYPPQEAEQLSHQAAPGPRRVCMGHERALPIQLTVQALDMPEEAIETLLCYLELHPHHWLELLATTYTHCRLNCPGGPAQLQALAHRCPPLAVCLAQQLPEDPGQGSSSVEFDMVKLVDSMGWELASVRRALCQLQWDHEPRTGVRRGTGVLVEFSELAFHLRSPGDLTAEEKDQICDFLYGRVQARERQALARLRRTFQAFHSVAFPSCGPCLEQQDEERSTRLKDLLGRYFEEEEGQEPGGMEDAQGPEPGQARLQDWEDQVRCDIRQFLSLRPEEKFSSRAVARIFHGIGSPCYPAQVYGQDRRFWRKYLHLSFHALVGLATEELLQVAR
Kind of assay: co-IP; anti-Flag M2 affinity gel; whole-cell lysates of transfected 293T cells, 1.0 mg protein in lysis buffer (50 mM Tris-HCl pH 7.5, 150 mM NaCl, 1% NP-40, 5 mM EDTA, 5 mM EGTA); 4 °C, 3-4 h; Western blot. (Immunoblotting shows a protein as a band on a membrane.)

Assay [2] has as its target T2, Flag-tagged RecQL4 Q253H (N-terminal sld2 domain mutation) (human) (UniProt O94761).
T2 sequence: T1 sequence with Q253H
Described as above.

Consider “endogenous (native) Aurora B kinase (AURKB) of 293T cells (from UniProt Q96GD4 1-344)”, for which the binding result in assay [1] and in assay [2] was “binds” in each case.
